Measured values from publication doi:10.1101/799536.
Results are given in words; binding and its absence hold for the method and conditions named. Binding seen in cells or lysates may run through a third protein. Some binding calls cover weakened binding; strength is not graded here.

Amino acid sequences for entries named in this document (tags omitted).
UniProt Q3TKT4: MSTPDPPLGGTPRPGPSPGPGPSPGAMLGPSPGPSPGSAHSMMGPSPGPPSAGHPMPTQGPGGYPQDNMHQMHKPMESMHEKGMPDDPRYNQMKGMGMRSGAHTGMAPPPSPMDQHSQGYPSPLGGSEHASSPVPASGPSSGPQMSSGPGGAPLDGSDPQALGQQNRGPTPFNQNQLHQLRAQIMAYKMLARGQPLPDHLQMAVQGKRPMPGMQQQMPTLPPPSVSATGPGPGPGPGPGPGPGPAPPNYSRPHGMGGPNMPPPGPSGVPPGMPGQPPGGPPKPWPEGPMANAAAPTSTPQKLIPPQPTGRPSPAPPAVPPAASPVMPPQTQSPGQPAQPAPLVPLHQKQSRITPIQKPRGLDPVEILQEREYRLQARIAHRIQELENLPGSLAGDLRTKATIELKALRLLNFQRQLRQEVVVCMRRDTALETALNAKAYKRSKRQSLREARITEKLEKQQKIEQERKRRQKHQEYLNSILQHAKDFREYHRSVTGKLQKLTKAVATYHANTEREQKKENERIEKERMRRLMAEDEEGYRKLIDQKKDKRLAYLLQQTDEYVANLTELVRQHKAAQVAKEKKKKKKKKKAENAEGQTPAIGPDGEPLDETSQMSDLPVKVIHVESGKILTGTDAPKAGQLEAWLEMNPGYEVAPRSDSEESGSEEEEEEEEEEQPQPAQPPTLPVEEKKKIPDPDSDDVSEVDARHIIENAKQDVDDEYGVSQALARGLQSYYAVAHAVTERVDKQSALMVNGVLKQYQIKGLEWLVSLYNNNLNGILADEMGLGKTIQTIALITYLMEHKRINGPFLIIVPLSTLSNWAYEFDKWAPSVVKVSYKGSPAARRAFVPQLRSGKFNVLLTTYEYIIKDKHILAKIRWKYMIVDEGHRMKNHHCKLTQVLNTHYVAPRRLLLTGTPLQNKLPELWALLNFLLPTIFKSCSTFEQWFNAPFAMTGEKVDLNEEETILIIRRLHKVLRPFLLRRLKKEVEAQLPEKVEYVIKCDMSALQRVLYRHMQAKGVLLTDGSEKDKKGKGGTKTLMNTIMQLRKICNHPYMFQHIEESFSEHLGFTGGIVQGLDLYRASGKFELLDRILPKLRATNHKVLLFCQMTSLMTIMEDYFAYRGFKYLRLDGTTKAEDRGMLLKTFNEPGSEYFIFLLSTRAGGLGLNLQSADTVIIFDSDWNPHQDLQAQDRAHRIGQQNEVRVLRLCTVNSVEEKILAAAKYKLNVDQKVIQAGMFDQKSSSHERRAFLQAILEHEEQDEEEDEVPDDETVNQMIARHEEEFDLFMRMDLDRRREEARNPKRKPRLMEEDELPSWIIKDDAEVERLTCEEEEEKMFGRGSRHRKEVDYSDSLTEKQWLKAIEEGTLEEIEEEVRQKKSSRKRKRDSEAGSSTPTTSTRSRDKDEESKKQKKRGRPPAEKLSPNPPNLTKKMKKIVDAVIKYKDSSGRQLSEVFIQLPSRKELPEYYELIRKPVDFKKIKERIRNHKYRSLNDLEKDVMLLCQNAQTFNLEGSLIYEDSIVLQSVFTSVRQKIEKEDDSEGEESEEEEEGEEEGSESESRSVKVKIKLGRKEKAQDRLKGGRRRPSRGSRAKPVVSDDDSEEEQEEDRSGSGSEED
UniProt Q924A2: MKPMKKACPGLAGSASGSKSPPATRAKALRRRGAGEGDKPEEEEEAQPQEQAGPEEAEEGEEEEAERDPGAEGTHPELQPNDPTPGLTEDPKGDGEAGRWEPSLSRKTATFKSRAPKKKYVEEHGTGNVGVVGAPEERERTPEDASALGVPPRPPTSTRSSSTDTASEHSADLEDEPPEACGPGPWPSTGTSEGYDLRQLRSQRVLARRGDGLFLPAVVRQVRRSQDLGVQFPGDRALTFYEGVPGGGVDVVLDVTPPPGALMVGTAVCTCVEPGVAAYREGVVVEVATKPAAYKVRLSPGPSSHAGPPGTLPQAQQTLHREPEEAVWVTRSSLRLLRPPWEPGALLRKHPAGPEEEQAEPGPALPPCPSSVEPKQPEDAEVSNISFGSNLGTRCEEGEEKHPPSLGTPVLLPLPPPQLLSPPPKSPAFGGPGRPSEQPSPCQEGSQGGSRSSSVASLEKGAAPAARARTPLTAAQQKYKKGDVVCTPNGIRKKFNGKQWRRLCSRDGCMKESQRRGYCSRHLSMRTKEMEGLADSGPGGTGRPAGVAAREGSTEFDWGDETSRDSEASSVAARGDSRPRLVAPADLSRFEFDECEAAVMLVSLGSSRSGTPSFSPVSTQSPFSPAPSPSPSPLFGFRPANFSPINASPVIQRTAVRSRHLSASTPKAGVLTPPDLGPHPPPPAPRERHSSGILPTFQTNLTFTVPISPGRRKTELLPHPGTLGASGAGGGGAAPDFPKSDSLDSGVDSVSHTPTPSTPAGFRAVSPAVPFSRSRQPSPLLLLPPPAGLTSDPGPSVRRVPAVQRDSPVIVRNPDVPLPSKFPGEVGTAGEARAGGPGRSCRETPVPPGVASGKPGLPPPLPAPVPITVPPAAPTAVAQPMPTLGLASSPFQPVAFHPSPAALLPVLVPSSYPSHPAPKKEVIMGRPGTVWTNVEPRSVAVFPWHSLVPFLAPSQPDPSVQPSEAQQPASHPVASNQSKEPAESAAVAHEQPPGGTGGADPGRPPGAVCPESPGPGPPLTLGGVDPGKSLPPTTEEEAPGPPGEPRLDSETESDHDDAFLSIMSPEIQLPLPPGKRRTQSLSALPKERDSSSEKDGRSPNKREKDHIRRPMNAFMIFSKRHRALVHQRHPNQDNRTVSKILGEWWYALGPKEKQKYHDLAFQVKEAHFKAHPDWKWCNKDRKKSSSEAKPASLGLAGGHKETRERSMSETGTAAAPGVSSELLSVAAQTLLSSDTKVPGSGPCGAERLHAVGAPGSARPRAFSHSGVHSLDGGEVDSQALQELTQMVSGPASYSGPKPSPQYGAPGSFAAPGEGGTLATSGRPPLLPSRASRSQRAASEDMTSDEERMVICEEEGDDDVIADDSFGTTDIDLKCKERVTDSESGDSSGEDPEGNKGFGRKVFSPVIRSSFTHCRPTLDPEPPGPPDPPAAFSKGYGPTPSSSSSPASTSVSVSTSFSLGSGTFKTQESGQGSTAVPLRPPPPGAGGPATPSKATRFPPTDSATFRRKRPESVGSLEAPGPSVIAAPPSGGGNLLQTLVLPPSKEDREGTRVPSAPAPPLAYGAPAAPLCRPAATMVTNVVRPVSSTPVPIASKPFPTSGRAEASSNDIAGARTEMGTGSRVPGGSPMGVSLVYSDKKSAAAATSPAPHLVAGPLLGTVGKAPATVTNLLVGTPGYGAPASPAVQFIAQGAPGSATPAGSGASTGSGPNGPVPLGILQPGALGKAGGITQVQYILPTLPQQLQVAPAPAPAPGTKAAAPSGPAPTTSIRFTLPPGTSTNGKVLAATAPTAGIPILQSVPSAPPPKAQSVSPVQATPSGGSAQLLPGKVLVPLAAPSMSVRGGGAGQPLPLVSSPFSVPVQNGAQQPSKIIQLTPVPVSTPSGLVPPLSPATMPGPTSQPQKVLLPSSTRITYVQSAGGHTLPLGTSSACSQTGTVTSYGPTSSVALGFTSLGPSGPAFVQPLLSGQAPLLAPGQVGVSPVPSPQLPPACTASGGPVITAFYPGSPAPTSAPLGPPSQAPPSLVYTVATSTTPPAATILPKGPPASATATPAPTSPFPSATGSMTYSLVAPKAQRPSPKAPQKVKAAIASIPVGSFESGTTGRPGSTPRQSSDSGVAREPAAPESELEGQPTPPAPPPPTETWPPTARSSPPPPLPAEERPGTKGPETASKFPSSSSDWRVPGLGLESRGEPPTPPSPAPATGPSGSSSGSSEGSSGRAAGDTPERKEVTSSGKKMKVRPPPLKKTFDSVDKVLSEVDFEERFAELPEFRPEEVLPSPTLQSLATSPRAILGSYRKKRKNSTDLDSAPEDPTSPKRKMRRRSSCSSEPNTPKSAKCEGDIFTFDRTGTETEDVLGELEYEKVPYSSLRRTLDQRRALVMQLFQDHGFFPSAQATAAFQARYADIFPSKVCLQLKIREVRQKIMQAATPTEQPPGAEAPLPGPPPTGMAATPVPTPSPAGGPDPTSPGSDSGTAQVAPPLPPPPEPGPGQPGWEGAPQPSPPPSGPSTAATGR
UniProt Q8K4L3: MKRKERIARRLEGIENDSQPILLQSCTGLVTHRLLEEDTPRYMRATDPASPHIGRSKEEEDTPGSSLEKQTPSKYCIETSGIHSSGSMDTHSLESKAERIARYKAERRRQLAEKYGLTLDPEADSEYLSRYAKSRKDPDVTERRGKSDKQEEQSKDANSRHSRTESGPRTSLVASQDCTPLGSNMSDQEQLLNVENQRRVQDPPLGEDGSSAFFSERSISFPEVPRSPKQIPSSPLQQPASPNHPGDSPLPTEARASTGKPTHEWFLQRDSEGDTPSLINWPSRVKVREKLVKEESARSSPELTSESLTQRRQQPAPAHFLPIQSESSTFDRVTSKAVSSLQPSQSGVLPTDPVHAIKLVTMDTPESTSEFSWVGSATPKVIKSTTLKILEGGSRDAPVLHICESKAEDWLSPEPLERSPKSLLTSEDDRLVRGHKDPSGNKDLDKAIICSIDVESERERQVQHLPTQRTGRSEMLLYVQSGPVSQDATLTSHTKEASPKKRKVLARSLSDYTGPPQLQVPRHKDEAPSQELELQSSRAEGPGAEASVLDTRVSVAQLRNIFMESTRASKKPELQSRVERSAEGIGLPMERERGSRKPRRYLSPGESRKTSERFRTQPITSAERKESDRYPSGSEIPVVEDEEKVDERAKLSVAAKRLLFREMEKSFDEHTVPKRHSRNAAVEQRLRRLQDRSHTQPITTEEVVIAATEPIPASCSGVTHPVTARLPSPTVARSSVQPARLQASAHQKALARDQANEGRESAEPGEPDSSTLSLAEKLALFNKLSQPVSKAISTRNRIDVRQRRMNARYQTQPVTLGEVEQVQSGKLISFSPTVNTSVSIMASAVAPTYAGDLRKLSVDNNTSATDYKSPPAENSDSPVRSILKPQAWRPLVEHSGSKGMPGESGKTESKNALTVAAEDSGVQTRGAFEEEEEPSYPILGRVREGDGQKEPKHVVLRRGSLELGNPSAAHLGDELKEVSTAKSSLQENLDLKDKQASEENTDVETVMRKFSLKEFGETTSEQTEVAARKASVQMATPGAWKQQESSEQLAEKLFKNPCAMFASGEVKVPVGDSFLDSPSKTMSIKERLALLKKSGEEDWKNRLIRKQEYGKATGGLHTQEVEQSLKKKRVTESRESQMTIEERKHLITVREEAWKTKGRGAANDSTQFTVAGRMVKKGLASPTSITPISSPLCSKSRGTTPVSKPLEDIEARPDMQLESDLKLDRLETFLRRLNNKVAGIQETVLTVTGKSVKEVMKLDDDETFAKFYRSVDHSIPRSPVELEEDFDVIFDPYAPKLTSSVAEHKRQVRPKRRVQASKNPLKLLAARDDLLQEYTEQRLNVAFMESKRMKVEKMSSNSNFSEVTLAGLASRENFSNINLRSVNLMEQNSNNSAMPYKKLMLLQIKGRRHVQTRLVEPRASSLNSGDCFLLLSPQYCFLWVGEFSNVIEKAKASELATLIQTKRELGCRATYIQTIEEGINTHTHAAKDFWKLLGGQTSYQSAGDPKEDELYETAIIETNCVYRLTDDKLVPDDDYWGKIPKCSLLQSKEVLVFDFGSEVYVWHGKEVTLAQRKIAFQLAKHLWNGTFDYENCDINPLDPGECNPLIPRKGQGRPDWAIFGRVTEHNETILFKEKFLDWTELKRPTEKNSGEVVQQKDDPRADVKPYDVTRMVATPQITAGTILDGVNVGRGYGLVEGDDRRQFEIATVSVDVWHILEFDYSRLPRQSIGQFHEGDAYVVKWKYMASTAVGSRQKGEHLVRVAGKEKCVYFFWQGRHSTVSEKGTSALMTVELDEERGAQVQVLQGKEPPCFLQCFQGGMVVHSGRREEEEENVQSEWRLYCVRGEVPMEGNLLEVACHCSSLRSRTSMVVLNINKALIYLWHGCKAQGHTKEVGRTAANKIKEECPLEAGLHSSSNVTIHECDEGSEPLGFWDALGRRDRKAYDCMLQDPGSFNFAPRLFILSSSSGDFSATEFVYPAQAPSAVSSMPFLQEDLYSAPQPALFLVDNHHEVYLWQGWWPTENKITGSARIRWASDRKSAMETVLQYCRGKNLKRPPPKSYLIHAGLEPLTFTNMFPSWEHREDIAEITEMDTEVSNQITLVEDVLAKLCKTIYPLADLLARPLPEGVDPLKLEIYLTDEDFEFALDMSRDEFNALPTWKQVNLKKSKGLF

What was measured:
[1] = target: BRG1 (SMARCA4) (mouse (endogenous in P1 and P0.5 brain)) (UniProt Q3TKT4); experiment: co-IP
[2] = target: Capicua (CIC) (mouse (endogenous in P1 and P0.5 brain)) (UniProt Q924A2); experiment: co-IP

SVIL, an actin-binding protein encoded by supervillin gene (from UniProt Q8K4L3 1-2170)
binding [1]: binds | binding [2]: binds
